Assay results from EP0196515A1, “Photodynamic inactivation of virus in therapeutic protein compositions” (BAXTER TRAVENOL LABORATORIES, INC., priority 1985, dated 1986).
Values joined by “and” are separate entries in the source; they are usually repeats but may differ in a detail not shown here. Identical values can stand only once. For some of these results: At least one read-out could not be matched to a standard name with certainty. For some of these results: At least one compound was matched to its structure with a doubt left.

Amino acid sequences for entries named in this document (tags omitted). Residues count along the entry.
UniProt P00740, 47-461: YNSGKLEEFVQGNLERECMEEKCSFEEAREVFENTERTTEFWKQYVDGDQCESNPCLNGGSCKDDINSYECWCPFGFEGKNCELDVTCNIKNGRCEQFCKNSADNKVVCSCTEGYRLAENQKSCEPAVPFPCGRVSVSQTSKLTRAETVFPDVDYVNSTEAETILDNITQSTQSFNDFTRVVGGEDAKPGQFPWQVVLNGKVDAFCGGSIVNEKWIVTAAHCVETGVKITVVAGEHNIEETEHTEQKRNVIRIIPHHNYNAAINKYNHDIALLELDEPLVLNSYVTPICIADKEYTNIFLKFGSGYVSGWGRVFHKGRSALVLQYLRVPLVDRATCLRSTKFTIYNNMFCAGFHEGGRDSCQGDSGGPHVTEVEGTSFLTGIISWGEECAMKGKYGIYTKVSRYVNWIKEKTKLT

Tests used:
Factor IX = Factor IX (Homo sapiens, UniProt P00740); assay: Factor IX activity, one-stage activated partial thromboplastin time assay (FIXC product after photosensitizer and light); details: Mercury Arc Lamp w/Filter
Factor VIII = target: T1, Factor VIII (Homo sapiens, UniProt P00451); assay: Factor VIII C activity, one-stage activated partial thromboplastin time assay (AHF product after photosensitizer and light); details: protoporphyrin and light; liquid state; exposed for 5 minutes
T1 sequence (P00451 20-1332 limits assumed): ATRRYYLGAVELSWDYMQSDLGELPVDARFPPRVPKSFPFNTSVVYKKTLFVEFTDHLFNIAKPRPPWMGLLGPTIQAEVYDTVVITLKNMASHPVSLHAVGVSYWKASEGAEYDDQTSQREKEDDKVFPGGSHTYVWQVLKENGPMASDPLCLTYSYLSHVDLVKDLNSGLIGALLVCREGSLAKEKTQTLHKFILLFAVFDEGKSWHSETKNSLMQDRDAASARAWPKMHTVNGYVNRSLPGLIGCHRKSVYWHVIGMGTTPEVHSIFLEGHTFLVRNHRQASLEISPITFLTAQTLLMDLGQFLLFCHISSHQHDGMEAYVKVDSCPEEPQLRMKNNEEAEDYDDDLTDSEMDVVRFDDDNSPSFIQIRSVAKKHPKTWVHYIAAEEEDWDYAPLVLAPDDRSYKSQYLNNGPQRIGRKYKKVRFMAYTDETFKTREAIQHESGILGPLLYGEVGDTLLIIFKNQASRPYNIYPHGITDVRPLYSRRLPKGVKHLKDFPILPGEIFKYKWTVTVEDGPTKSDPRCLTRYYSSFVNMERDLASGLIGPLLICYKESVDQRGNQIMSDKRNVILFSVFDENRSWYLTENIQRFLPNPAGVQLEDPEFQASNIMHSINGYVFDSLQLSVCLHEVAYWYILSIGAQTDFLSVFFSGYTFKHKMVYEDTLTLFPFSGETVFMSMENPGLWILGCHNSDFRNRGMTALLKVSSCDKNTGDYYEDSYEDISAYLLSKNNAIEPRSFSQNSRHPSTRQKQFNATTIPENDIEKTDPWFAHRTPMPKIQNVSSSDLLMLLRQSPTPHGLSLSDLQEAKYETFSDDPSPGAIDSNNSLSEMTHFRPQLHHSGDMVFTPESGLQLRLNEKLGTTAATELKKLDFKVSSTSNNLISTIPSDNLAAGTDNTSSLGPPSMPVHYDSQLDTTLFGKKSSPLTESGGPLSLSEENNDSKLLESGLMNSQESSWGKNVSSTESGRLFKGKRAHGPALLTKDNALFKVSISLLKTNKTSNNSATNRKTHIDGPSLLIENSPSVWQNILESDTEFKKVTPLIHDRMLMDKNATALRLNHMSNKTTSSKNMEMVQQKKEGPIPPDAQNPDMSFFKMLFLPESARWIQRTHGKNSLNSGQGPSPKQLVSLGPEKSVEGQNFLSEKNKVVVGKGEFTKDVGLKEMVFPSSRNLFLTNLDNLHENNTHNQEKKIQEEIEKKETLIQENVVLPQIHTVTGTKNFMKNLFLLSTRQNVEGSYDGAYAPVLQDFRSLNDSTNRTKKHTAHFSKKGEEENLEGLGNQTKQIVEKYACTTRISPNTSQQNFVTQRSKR
T1 sequence (P00451 1668-2351 limits assumed): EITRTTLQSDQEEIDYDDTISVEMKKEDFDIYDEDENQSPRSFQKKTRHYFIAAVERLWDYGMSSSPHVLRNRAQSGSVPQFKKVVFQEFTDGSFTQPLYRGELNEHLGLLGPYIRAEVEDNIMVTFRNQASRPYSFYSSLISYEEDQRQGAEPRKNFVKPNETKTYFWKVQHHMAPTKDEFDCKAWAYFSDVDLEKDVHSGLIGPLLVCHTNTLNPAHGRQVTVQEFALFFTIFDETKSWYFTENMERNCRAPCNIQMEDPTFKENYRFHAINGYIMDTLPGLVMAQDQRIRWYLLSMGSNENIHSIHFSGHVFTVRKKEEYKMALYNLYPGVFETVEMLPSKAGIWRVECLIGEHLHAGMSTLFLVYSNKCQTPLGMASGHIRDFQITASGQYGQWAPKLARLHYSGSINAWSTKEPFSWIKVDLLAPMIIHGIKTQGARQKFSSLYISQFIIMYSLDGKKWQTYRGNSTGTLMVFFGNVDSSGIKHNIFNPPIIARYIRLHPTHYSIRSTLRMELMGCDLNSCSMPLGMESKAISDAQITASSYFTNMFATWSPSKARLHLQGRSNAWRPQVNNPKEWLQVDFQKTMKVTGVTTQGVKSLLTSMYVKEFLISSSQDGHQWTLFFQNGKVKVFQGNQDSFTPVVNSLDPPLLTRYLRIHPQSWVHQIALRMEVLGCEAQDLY

For `C=CC1=C(C)c2cc3[nH]c(cc4nc(cc5[nH]c(cc1n2)c(C)c5CCC(=O)O)C(CCC(=O)O)=C4C)c(C)c3C=C` [Protoporphyrin, Protoporphyrin IX], the “% Change (Ref: Bulk)” value (Factor IX; Protoporphyrin 1 X 10^-5M, exposure 0 sec) was -14%, the “% Change (Ref: Bulk)” value (Factor IX; Protoporphyrin 1 X 10^-5M, exposure 60 sec) was -31% and the “% Change (Ref: Bulk)” value (Factor IX; Protoporphyrin 1 X 10^-5M, exposure 120 sec) was -47%. For the same compound, the “% Change (Ref: Bulk)” value (Factor IX; Protoporphyrin 1 X 10^-5M, exposure 300 sec) was -65%, the “% Change (Ref: Bulk)” value (Factor IX; Protoporphyrin 5 X 10^-6M, exposure 60 sec) was -23% and -17% and the “% Change (Ref: Bulk)” value (Factor IX; Protoporphyrin 5 X 10^-6M, exposure 300 sec) was -12% and -16%. The “effect on Factor VIII activity” value (Factor VIII) was “does not significantly reduce”.
